# Experimental data from the supplement of paper PMC8090911.
# Where a name gives a salt, the structure may show the parent alone. The list shows a part of the results. Many values rest on one well or one pass, so single values are uncertain.
# System: p95-ErbB2-MCF7
# Assay: perinuclear lysosome accumulation (PNLA, size of LAMP2 puncta), robust Z-score vs plate median; higher = more perinuclear lysosome accumulation (reversal of invasive lysosome distribution)
# Conditions: 5 µM; 24 h
row,SMILES,perinuclear lysosome accumulation
1,CN(C)CCC=C1c2ccccc2COc2ccccc21 [Doxepin hydrochloride],0.657
2,CCC[C@@H]1C[C@@H](C(=O)N[C@@H]([C@H]2O[C@H](SC)[C@H](O)[C@@H](O)[C@H]2O)[C@H](C)Cl)N(C)C1 [Clindamycin hydrochloride],-0.769
3,O=C(N[C@H](CO)[C@H](O)c1ccc([N+](=O)[O-])cc1)C(Cl)Cl [Chloramphenicol],1.31
4,Cc1ccc2c(c1)c1c3n2CCNC3CCC1 (centres undefined) [Pirlindole mesylate],-1.9
5,C=C1/C(=C\C=C2/CCC[C@]3(C)[C@@H]([C@H](C)CCCC(C)C)CC[C@@H]23)C[C@@H](O)C[C@@H]1O [Alfacalcidol],0.52
6,CCOc1ccc2ccccc2c1C(=O)N[C@@H]1C(=O)N2[C@@H]1SC(C)(C)[C@@H]2C(=O)O [Nafcillin sodium salt monohydrate],1.61
7,CC(C)(CO)C(O)C(=O)NCCCO (centres undefined) [Panthenol (D)],1.13
8,CN(C)C/C=C(/c1ccc(Br)cc1)c1cccnc1 [Zimelidine dihydrochloride monohydrate],2.35
9,CCN(CC)CCNC(=O)c1cc(Cl)c(N)cc1OC [Metoclopramide monohydrochloride],0.0627
10,Cn1cnc2c1c(=O)[nH]c(=O)n2C [Theobromine],0.753
11,Cc1c(-c2ccccc2)oc2c(C(=O)OCCN3CCCCC3)cccc2c1=O [Flavoxate hydrochloride],-1.23
12,CN[C@@H]1[C@@H](O[C@H]2O[C@H](CO)[C@@H](N)[C@H](O)[C@H]2O)OC2C[C@@H](N)[C@@H](O[C@H]3[C@H](O)[C@@H](O)[C@H](N)C[C@@H]3N)OC2[C@@H]1O (some centres undefined) [Apramycin],0.787
13,C#Cc1cccc(Nc2ncnc3cc(OCCOC)c(OCCOC)cc23)c1 [Erlotinib],0.474
14,Cc1onc(-c2ccccc2Cl)c1C(=O)N[C@@H]1C(=O)N2[C@@H]1SC(C)(C)[C@@H]2C(=O)O [Cloxacillin sodium salt],1.13
15,CN[C@@H]1[C@H](O)[C@H](NC)[C@H]2O[C@@]3(O)C(=O)C[C@@H](C)O[C@H]3O[C@@H]2[C@H]1O [Spectinomycin dihydrochloride],-0.104
16,NS(=O)(=O)c1cc2c(cc1Cl)NC(C(Cl)Cl)NS2(=O)=O (centres undefined) [Trichlormethiazide],0.647
17,Cc1ccc(NC(=O)c2ccc(CN3CCN(C)CC3)cc2)cc1Nc1nccc(-c2cccnc2)n1 [Imatinib],-2.15
18,CCCC1C(=O)N2C(N(C)C)=Nc3ccc(C)cc3N2C1=O (centres undefined) [Azapropazone],0.466
19,Clc1ccc(C(Cn2ccnc2)OCc2ccsc2Cl)c(Cl)c1 (centres undefined) [Tioconazole],-0.255
20,"C[C@](N)(Cc1ccc(O)c(O)c1)C(=O)O [Methyldopa (L,-)]",0.142
21,c1cnc(N2CCN(Cc3ccc4c(c3)OCO4)CC2)nc1 [Piribedil hydrochloride],0.553
22,C[C@H]1c2cccc(O)c2C(=O)C2=C(O)[C@]3(O)C(=O)C(C(N)=O)=C(O)[C@@H](N(C)C)[C@@H]3[C@@H](O)[C@@H]21 [Doxycycline hydrochloride],-1.13
23,C1CCC(C(CC2CCCCN2)C2CCCCC2)CC1 (centres undefined) [Perhexiline maleate],3.36

row,SMILES,perinuclear lysosome accumulation
1,CCc1nc(N)nc(N)c1-c1ccc(Cl)cc1 [Pyrimethamine],0.128
2,CC(=O)[C@@]1(O)CC[C@H]2[C@@H]3C[C@H](C)C4=CC(=O)C=C[C@]4(C)[C@@]3(F)[C@@H](O)C[C@@]21C [Fluorometholone],-0.529
3,CC(C)NCC(O)COc1ccc(CCOCC2CC2)cc1 (centres undefined) [Betaxolol hydrochloride],-0.391
4,COc1cc(C(=O)NCc2ccc(OCCN(C)C)cc2)cc(OC)c1OC [Trimethobenzamide hydrochloride],0.793
5,COc1ccc(-c2cc(=S)ss2)cc1 [Anethole-trithione],-0.942
6,O=C(O)c1cn(C2CC2)c2cc(N3CCNCC3)c(F)cc2c1=O [Ciprofloxacin hydrochloride],0.562
7,O=C(O)/C=C/c1ccc(O)c(O)c1 [Caffeic acid],-1.45
8,Clc1ccc(Cn2c(CN3CCCC3)nc3ccccc32)cc1 [Clemizole hydrochloride],-0.201
9,COc1cc2nc(N(C)CCCNC(=O)C3CCCO3)nc(N)c2cc1OC (centres undefined) [Alfuzosin hydrochloride],-0.648
10,N[C@@H]1CONC1=O [D-cycloserine],1.26
11,O=C(O)COCCN1CCN(C(c2ccccc2)c2ccc(Cl)cc2)CC1 (centres undefined) [Cetirizine dihydrochloride],-2.14
12,C#C[C@]1(OC(C)=O)CC[C@H]2[C@@H]3CCC4=CC(=NO)CC[C@@H]4[C@H]3CC[C@@]21CC (mixture of isomers) [Norgestimate],0.0556
13,Clc1ccc(CO/N=C(\Cn2ccnc2)c2ccc(Cl)cc2Cl)c(Cl)c1 [Oxiconazole Nitrate],1.46
14,CC(=O)O[C@]1(C(C)=O)CC[C@H]2[C@@H]3C=C(Cl)C4=CC(=O)[C@@H]5C[C@@H]5[C@]4(C)[C@H]3CC[C@@]21C [Cyproterone acetate],0.237
15,Cc1ncc(CO)c(CO)c1O [Pyridoxine hydrochloride],-1.06
16,CCc1c(C)[nH]c2c1C(=O)C(CN1CCOCC1)CC2 (centres undefined) [Molindone hydrochloride],0.0215
17,CCC1(c2ccccc2)NC(=O)N(C)C1=O (centres undefined) [Mephenytoin],1.02
18,CC1=C(/C=C/C(C)=C/C=C/C(C)=C/C(=O)O)C(C)(C)CCC1 [Retinoic acid],-1.13
19,NC(=O)c1cc[n+](CC2=C(C(=O)[O-])N3C(=O)[C@@H](NC(=O)[C@@H](c4ccccc4)S(=O)(=O)O)[C@H]3SC2)cc1 [Cefsulodin sodium salt],0.0912
20,CC(=O)Oc1ccccc1C(=O)O [Acetylsalicylic acid],-0.137
21,N=C(N)NS(=O)(=O)c1ccc(N)cc1 [Sulfaguanidine],-0.137
22,CC(=O)[C@H]1CC[C@H]2[C@@H]3CCC4=CC(=O)CC[C@]4(C)[C@H]3CC[C@]12C [Progesterone],-0.296
23,CN(C)CC/C=C1/c2ccccc2Sc2ccc(Cl)cc21 [Chlorprothixene hydrochloride],0.542

row,SMILES,perinuclear lysosome accumulation
1,NC(Cc1cc(I)c(Oc2cc(I)c(O)c(I)c2)c(I)c1)C(=O)O (centres undefined) [Thyroxine (L)],-2.27
2,CN(C)CCOC(c1ccccc1)c1ccccc1 [Diphenhydramine hydrochloride],-0.202
3,COc1ccc2[nH]c([S+]([O-])Cc3ncc(C)c(OC)c3C)nc2n1 (centres undefined) [Tenatoprazole],-0.509
4,C[C@]12CC[C@@H]3c4ccc(O)cc4CC[C@H]3[C@@H]1CC[C@@H]2O [Estradiol-17 beta],-2.04
5,CCCN(CCC)S(=O)(=O)c1ccc(C(=O)O)cc1 [Probenecid],-1
6,Clc1ccc(CSC(Cn2ccnc2)c2ccc(Cl)cc2Cl)cc1 (centres undefined) [Sulconazole nitrate],0.373
7,CC1CNc2c(cccc2S(=O)(=O)N[C@@H](CCCNC(=N)N)C(=O)N2CC[C@@H](C)C[C@@H]2C(=O)O)C1 (some centres undefined) [Argatroban],1.11
8,CN(C)CCN(Cc1ccccc1)c1ccccn1 [Tripelennamine hydrochloride],-0.48
9,Nc1ccn([C@@H]2O[C@H](CO)[C@@H](O)C2(F)F)c(=O)n1 [Gemcitabine],-0.378
10,CN1C(=O)CC(c2ccccc2)C1=O (centres undefined) [Phensuximide],-2.49
11,CC(=O)O[C@@]12CO[C@@H]1C[C@H](O)[C@@]1(C)C(=O)[C@H](O)C3=C(C)[C@@H](OC(=O)[C@H](O)[C@@H](NC(=O)OC(C)(C)C)c4ccccc4)C[C@@](O)([C@@H](OC(=O)c4ccccc4)[C@H]21)C3(C)C [Docetaxel],1.26
12,N=C(N)NC(=O)Cc1c(Cl)cccc1Cl [Guanfacine hydrochloride],-0.0886
13,Nc1nc(Cl)nc2c1ncn2[C@H]1C[C@H](O)[C@@H](CO)O1 [Cladribine],0.26
14,CN[C@@H]1[C@H](O[C@H]2[C@H](O[C@H]3[C@H](O)[C@@H](O)[C@H](N=C(N)N)[C@@H](O)[C@@H]3N=C(N)N)O[C@@H](C)[C@]2(O)C=O)O[C@@H](CO)[C@H](O)[C@H]1O [Streptomycin sulfate],-1.93
15,OCCOCCN1CCN(C2=Nc3ccccc3Sc3ccccc32)CC1 [Quetiapine],0.536
16,CC1(C)S[C@@H]2[C@H](NC(=O)[C@H](N)c3ccc(O)cc3)C(=O)N2[C@H]1C(=O)O [Amoxicillin],-1.42
17,COc1cccc2c1C(=O)c1c(O)c3c(c(O)c1C2=O)C[C@@](O)(C(=O)CO)C[C@@H]3O[C@H]1C[C@H](N)[C@H](O)[C@H](C)O1 [Doxorubicin hydrochloride],-1.43
18,CCC(=O)O[C@@H](O[P@](=O)(CCCCc1ccccc1)CC(=O)N1C[C@H](C2CCCCC2)C[C@H]1C(=O)O)C(C)C [Fosinopril],-0.365
19,CCCCC(=O)O[C@H]1CC[C@H]2[C@@H]3CCc4cc(O)ccc4[C@H]3CC[C@]12C [Estradiol Valerate],-0.0974
20,CC(=O)Nc1cc2ccccc2oc1=O [3-Acetamidocoumarin],0.867
21,N=C(N)c1ccc(OCCCCCOc2ccc(C(=N)N)cc2)cc1 [Pentamidine isethionate],0.469
22,Fc1ccc(C(c2ccc(F)cc2)N2CCN(C/C=C/c3ccccc3)CC2)cc1 [Flunarizine dihydrochloride],-0.114
23,CCCc1cc(=O)[nH]c(=S)[nH]1 [Propylthiouracil],-0.557

# Part of the list above, as tab-separated lines:
row	SMILES	perinuclear lysosome accumulation
18	CCCC1C(=O)N2C(N(C)C)=Nc3ccc(C)cc3N2C1=O (centres undefined) [Azapropazone]	0.466
19	Clc1ccc(C(Cn2ccnc2)OCc2ccsc2Cl)c(Cl)c1 (centres undefined) [Tioconazole]	-0.255
